Test results published in the supplement of paper PMC10032668.
The other results are listed elsewhere or left out. Only hits are listed; about a third recur on repeated control peptides.

Chains of the proteins cited; added tags and fusions are not shown.
TPX2, Q9ULW0, UniProt Q9ULW0, whole entry: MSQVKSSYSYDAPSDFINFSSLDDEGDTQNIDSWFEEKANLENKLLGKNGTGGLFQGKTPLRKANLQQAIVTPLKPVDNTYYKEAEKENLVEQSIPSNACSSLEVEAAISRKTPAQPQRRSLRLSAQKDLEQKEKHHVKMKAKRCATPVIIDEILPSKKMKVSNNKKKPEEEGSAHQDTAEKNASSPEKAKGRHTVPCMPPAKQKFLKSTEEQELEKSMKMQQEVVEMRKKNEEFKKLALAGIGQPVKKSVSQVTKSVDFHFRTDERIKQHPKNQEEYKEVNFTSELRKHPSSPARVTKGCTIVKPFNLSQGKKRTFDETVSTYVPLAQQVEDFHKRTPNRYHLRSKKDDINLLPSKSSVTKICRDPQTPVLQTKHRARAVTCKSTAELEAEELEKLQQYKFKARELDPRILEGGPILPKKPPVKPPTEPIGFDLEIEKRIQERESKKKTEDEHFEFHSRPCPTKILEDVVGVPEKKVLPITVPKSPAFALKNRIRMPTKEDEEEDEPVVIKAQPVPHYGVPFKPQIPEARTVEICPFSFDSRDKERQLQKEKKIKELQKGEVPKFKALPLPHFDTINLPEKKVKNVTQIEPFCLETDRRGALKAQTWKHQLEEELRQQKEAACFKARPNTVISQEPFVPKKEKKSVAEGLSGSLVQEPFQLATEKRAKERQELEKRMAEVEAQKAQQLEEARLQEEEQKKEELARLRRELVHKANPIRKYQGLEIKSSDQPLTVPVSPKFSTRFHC
UBN2, Q6ZU65, UniProt Q6ZU65, whole entry: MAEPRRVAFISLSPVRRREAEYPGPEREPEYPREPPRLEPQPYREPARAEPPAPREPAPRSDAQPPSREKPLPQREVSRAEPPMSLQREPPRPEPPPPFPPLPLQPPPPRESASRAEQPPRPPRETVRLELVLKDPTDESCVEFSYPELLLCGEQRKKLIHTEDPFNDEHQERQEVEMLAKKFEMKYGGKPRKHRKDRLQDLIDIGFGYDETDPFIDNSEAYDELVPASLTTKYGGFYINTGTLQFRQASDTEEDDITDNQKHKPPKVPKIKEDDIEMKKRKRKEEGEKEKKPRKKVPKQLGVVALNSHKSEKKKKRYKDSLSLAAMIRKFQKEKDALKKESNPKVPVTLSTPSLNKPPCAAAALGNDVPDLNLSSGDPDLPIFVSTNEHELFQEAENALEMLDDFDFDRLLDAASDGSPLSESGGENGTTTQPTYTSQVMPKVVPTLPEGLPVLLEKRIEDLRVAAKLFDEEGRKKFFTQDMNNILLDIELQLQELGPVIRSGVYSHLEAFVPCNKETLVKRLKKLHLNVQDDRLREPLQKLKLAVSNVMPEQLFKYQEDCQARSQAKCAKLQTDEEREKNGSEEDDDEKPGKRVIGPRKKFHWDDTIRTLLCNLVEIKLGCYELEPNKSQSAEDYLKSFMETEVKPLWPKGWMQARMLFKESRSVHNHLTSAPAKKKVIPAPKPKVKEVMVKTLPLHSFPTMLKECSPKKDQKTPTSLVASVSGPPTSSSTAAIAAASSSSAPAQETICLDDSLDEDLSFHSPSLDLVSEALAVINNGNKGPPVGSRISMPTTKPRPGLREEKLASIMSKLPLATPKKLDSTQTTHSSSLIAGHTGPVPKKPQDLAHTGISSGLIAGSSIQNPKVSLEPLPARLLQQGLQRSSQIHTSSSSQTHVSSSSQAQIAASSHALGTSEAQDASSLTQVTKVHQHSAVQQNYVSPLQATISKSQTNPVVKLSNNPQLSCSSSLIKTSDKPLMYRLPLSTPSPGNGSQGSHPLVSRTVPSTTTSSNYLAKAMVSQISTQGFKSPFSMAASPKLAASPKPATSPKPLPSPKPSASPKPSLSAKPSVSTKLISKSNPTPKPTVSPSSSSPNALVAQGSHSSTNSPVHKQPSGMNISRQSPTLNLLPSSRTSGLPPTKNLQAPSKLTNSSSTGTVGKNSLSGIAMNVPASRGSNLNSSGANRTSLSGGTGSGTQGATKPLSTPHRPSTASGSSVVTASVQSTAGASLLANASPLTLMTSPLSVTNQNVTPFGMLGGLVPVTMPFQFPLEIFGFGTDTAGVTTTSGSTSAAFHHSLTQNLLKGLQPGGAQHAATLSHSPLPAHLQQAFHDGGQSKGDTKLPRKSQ
WDR82, Q6UXN9, UniProt Q6UXN9, whole entry: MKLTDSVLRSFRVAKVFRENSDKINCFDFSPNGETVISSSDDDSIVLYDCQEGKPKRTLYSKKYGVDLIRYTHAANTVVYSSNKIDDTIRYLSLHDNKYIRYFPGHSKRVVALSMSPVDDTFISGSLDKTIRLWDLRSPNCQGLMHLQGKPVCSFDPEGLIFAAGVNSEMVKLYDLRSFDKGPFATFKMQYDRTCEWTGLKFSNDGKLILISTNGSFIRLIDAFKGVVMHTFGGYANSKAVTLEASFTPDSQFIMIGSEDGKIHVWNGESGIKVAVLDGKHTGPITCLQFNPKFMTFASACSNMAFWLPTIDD
AHCYL1, O43865, UniProt O43865, whole entry: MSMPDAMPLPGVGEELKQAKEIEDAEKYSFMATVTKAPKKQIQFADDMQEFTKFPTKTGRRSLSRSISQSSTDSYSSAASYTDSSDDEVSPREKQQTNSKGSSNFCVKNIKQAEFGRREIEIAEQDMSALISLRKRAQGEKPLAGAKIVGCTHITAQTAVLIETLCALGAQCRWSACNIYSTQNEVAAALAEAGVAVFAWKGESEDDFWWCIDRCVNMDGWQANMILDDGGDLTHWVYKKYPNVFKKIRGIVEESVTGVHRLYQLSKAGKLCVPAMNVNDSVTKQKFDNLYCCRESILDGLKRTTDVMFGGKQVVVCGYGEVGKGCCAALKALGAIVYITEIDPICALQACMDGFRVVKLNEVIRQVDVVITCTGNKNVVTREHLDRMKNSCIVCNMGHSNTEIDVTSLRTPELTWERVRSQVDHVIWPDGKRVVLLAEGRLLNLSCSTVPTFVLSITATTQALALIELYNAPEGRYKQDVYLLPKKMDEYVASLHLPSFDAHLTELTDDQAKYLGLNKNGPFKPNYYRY
AHSA1, O95433, UniProt O95433, whole entry: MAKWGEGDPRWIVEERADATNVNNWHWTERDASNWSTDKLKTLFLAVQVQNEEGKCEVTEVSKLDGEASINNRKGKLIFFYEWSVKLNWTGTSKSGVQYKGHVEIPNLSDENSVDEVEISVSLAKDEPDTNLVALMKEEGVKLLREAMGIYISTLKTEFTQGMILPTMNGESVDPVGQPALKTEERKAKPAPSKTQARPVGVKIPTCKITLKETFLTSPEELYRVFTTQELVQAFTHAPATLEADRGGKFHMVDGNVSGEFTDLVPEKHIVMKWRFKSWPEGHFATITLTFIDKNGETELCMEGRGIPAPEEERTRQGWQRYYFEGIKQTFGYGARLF

What was measured:
Assay in all cases: PRISMA enrichment of interactor (LFQ) in peptide spot vs all other peptide spots (log2 fold change); higher = stronger / more specific binding of the interactor to the peptide
SNW1, Q13573 = biological target: SNW1, Q13573
Description: (§1)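 PRISMA: 221 full-length sORF-encoded peptides (3-15 aa), plus SOS1/GLUT1 control peptides, were spot-synthesized on cellulose membranes in triplicate. Membranes were incubated with HEK293T lysate, and bound proteins were identified by LC-MS/MS with LFQ. Enrichment is the log2 fold change versus all other peptide spots; only significant interactors are listed (cutoff c=6, x0=2.8).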

SPAG5, Q96R06 = biological target: SPAG5, Q96R06
Description: as §1

TAB1, Q15750 = biological target: TAB1, Q15750
Description: as §1

TAB2, Q9NYJ8 = biological target: TAB2, Q9NYJ8
Description: as §1

TBL1XR1, Q9BZK7 = biological target: TBL1XR1, Q9BZK7
Description: as §1

TOX4, O94842 = biological target: TOX4, O94842
Description: as §1

TPX2, Q9ULW0 = biological target: TPX2, Q9ULW0
Description: as §1

UBAP2, Q5T6F2 = biological target: UBAP2, Q5T6F2
Description: as §1

UBAP2L, Q14157 = biological target: UBAP2L, Q14157
Description: as §1

UBE2S, Q16763 = biological target: UBE2S, Q16763
Description: as §1

UBN2, Q6ZU65 = biological target: UBN2, Q6ZU65
Description: as §1

UBXN1, Q04323 = biological target: UBXN1, Q04323
Description: as §1

UFD1, Q92890 = biological target: UFD1, Q92890
Description: as §1

UMPS, P11172 = biological target: UMPS, P11172
Description: as §1

UQCRFS1, P47985 = biological target: UQCRFS1, P47985
Description: as §1

UTP11, Q9Y3A2 = biological target: UTP11, Q9Y3A2
Description: as §1

UTP14A, Q9BVJ6 = biological target: UTP14A, Q9BVJ6
Description: as §1

WDR82, Q6UXN9 = biological target: WDR82, Q6UXN9
Description: as §1

WTAP, Q15007 = biological target: WTAP, Q15007
Description: as §1

XRN1, Q8IZH2 = biological target: XRN1, Q8IZH2
Description: as §1

ZC3H11A, O75152 = biological target: ZC3H11A, O75152
Description: as §1

ZNF281, Q9Y2X9 = biological target: ZNF281, Q9Y2X9
Description: as §1

ZNF638, Q14966 = biological target: ZNF638, Q14966
Description: as §1

AFDN, P55196 = biological target: AFDN, P55196
Description: as §1

CENPE, Q02224 = biological target: CENPE, Q02224
Description: as §1

LAP3, P28838 = biological target: LAP3, P28838
Description: as §1

MRPL24, Q96A35 = biological target: MRPL24, Q96A35
Description: as §1

NUB1, Q9Y5A7 = biological target: NUB1, Q9Y5A7
Description: as §1

NUP160, Q12769 = biological target: NUP160, Q12769
Description: as §1

NUP188, Q5SRE5 = biological target: NUP188, Q5SRE5
Description: as §1

RIOK2, Q9BVS4 = biological target: RIOK2, Q9BVS4
Description: as §1

AGL, P35573 = biological target: AGL, P35573
Description: as §1

SLC39A7, Q92504 = biological target: SLC39A7, Q92504
Description: as §1

AHCYL1, O43865 = biological target: AHCYL1, O43865
Description: as §1

AP2A1, O95782 = biological target: AP2A1, O95782
Description: as §1

GOLGB1, Q14789 = biological target: GOLGB1, Q14789
Description: as §1

NAP1L1, P55209 = biological target: NAP1L1, P55209
Description: as §1

NTHL1, P78549 = biological target: NTHL1, P78549
Description: as §1

AHSA1, O95433 = biological target: AHSA1, O95433
Description: as §1

FDX1, P10109 = biological target: FDX1, P10109
Description: as §1

PFKP, Q01813 = biological target: PFKP, Q01813
Description: as §1

## MAASSEIIIQVFVS [VPS8]
SNW1, Q13573
  PRISMA enrichment of interactor (log2): 5.13
SPAG5, Q96R06
  PRISMA enrichment of interactor (log2): 4.73
TAB1, Q15750
  PRISMA enrichment of interactor (log2): 5.96
TAB2, Q9NYJ8
  PRISMA enrichment of interactor (log2): 6.02
TBL1XR1, Q9BZK7
  PRISMA enrichment of interactor (log2): 6.73
TOX4, O94842
  PRISMA enrichment of interactor (log2): 5.8
TPX2, Q9ULW0
  PRISMA enrichment of interactor (log2): 8.06
UBAP2, Q5T6F2
  PRISMA enrichment of interactor (log2): 4.76
UBAP2L, Q14157
  PRISMA enrichment of interactor (log2): 6.41
UBE2S, Q16763
  PRISMA enrichment of interactor (log2): 4.94
UBN2, Q6ZU65
  PRISMA enrichment of interactor (log2): 3.98
UBXN1, Q04323
  PRISMA enrichment of interactor (log2): 4.24
UFD1, Q92890
  PRISMA enrichment of interactor (log2): 4.4
UMPS, P11172
  PRISMA enrichment of interactor (log2): 5.8
UQCRFS1, P47985
  PRISMA enrichment of interactor (log2): 5.01
UTP11, Q9Y3A2
  PRISMA enrichment of interactor (log2): 4.44
UTP14A, Q9BVJ6
  PRISMA enrichment of interactor (log2): 6.4
WDR82, Q6UXN9
  PRISMA enrichment of interactor (log2): 4.47
WTAP, Q15007
  PRISMA enrichment of interactor (log2): 4.95
XRN1, Q8IZH2
  PRISMA enrichment of interactor (log2): 5.72
ZC3H11A, O75152
  PRISMA enrichment of interactor (log2): 6.88
ZNF281, Q9Y2X9
  PRISMA enrichment of interactor (log2): 4.02
ZNF638, Q14966
  PRISMA enrichment of interactor (log2): 8.75

## MTPIRDPQRRCMSM [SLC38A1]
AFDN, P55196
  PRISMA enrichment of interactor (log2): 6.76
CENPE, Q02224
  PRISMA enrichment of interactor (log2): 5.13
LAP3, P28838
  PRISMA enrichment of interactor (log2): 5.13
MRPL24, Q96A35
  PRISMA enrichment of interactor (log2): 4.75
NUB1, Q9Y5A7
  PRISMA enrichment of interactor (log2): 7.05
NUP160, Q12769
  PRISMA enrichment of interactor (log2): 7.78
NUP188, Q5SRE5
  PRISMA enrichment of interactor (log2): 5.5
RIOK2, Q9BVS4
  PRISMA enrichment of interactor (log2): 4.64

## MVTMFRY [RNF216P1]
AGL, P35573
  PRISMA enrichment of interactor (log2): 6.57
SLC39A7, Q92504
  PRISMA enrichment of interactor (log2): 4.11

## MHVALAELRREA [ABLIM1]
AHCYL1, O43865
  PRISMA enrichment of interactor (log2): 4.41
AP2A1, O95782
  PRISMA enrichment of interactor (log2): 4.63
GOLGB1, Q14789
  PRISMA enrichment of interactor (log2): 7.3
NAP1L1, P55209
  PRISMA enrichment of interactor (log2): 4.87
NTHL1, P78549
  PRISMA enrichment of interactor (log2): 4.74

## MVARLAVEPTES [CNOT4]
AHSA1, O95433
  PRISMA enrichment of interactor (log2): 5.47
FDX1, P10109
  PRISMA enrichment of interactor (log2): 4.86
PFKP, Q01813
  PRISMA enrichment of interactor (log2): 4.56
